No constants are given. Whether binding was seen depends on the method and setting. For some assays here: Binding can be weak; no strength is given.
Tests used:
[1] = target: recombinant monkey IL-17A (monkey); test: ELISA, cytokine coated on plate
[2] = target: recombinant human IL-1 (human); test: ELISA, cytokine coated on plate at 1 µg/mL

- binding [1]: binds
- binding [2]: no binding
B1: anti-human IL-17A chimeric monoclonal antibody (antibody, human IgG1, kappa, V domains shown)
VH: DVQVQESGPGLVKPSQSLSLTCTVTGNSITSYYAWNWIRQFPGNKLEWMGYITYSGTTSYNPSLKSRISITRDTSKNQFFLQLNSVTTEDTATYYCAREEYDDIYAVDYWGQGTSVTVSS
VL: IIVMTQTPLSLPVSLGDQASISCRSSQSLVHSNGNTYLHWYLQKPGQSPKLLIYKVYNRFSGVPDRFSGSGSGTDFTLKISRVEAEDLGVYFCSQSTHFPTFGGGTKLEIKR
